Results on seven molecules are retold here after US20250002587A1 (University of California, published 2025).

By UniProt entry, the sequences of proteins in these tests, tags left out. Where a name states a change or a piece, a line headed by the entry shows the natural chain unless it says otherwise.
UniProt P43406: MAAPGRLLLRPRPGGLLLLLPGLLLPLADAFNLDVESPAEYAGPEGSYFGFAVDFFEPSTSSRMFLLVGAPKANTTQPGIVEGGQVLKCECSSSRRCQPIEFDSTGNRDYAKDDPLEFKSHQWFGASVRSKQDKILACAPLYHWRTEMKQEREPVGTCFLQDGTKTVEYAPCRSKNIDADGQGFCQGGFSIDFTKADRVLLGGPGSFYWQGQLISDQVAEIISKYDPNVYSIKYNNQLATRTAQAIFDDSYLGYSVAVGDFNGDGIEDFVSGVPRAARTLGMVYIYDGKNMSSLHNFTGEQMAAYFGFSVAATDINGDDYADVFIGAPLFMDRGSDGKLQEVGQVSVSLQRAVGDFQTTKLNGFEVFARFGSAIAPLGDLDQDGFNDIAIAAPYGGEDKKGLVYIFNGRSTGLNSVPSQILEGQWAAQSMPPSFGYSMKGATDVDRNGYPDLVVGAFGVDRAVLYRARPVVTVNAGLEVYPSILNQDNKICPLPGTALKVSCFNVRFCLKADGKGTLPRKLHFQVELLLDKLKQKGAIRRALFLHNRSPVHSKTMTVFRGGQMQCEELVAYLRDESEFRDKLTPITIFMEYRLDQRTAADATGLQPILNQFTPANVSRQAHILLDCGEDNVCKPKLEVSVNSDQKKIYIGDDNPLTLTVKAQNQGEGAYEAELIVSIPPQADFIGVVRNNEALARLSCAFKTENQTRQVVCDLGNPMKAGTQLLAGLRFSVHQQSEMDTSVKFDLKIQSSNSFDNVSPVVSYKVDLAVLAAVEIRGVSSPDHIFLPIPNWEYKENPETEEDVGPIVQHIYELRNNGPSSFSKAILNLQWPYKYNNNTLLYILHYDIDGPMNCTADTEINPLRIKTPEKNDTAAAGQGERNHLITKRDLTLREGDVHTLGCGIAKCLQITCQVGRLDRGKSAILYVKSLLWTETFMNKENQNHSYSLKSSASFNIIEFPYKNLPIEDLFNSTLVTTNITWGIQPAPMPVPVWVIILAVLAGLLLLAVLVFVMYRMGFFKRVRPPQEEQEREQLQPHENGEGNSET
UniProt Q0VBD0: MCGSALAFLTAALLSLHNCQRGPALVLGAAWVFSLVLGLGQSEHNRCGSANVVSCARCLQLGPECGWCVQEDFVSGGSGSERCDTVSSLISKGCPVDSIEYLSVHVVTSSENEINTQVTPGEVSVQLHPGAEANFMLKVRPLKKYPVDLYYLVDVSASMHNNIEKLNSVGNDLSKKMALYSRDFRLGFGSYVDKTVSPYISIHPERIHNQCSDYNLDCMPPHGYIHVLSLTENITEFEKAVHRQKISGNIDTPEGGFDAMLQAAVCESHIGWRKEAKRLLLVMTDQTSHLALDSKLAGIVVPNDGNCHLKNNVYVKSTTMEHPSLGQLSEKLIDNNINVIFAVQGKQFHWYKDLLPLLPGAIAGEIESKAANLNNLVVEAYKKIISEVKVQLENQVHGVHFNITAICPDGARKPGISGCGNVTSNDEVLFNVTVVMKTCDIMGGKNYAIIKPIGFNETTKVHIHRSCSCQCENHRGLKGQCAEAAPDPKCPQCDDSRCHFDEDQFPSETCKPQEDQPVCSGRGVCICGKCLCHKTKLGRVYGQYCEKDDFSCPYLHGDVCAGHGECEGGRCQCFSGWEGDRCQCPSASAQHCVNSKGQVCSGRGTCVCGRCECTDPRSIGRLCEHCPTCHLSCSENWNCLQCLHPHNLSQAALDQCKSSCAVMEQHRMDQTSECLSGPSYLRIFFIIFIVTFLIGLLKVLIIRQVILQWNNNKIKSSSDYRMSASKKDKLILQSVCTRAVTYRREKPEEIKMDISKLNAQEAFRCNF

These are yes or no findings as the source states them, for the method shown. Some results given as binding are weak or reduced against the parent protein; the word gives no strength.

Experiment [1] addresses T1, recombinant mouse αvβ8 (mouse, UniProt P43406 31-988; Q0VBD0 43-681, limits assumed).
T1 construct: Soluble recombinant heterodimer used as analyte at 200 nM in BLI
In words: bio-layer interferometry. On the technique in general: In BLI a coated tip is dipped into the sample, and binding shifts an interference pattern.

For experiment [2], the target named is T1, recombinant mouse αvβ8. The experiment in a line: bio-layer interferometry (legend of FIGS. 5A and 5B).
Experiment [3] addresses T1, recombinant mouse αvβ8. The experiment in a line: bio-layer interferometry, IgG on anti-human Fab-CH1 tips, 200 nM αvβ8 in solution.
Experiment [4] addresses T2, surface-expressed mouse αvβ8 on murine astrocytes (mouse) (UniProt P43406+Q0VBD0). The experiment in a line: FACS on murine astrocytes.
Experiment [5] addresses T2, surface-expressed mouse αvβ8 on murine astrocytes (mouse). The experiment in a line: FACS on murine astrocytes (legend of FIG. 7).
Experiment [6] has the same target. In words: FACS on murine astrocytes, fluorescent secondary antibody.

B1: ADWA16-3 (antibody, V domains shown)
VH: EVQLVESGGGLVQPGGSLRLSCAVSGYIFSSYWVYWVRQAPGKGLEWVGYINPTTGYTEYADSVKGRFTISRDNSKNTLYLQMNSLRAEDTAVYYCATEGGNWEDYWGQGTLVTVSS
VL: DIQMTQSPSSLSASVGDRVTITCRASQDISNYINWYQQKPGKAPKLLIYYTSRLYGGVPSRFSGSGSGTDFTLTISSLQPEDFATYYCQQFSELPRTFGQGTKVEIK
In the case of B1, the binding entry in the experiment with recombinant mouse αvβ8 [1], with recombinant mouse αvβ8 [2] and with recombinant mouse αvβ8 [3] was “binds” each time.

B2: ADWA16-1 (antibody, V domains shown)
VH: EVQLVESGGGLVQPGGSLRLSCAVSGYIFSSYWVYWVRQAPGKGLEWVGYINPTTGYTEYADSVKGRFTISRDNSKNTLYLQMNSLRAEDTAVYYCATEGGNWEDYWGQGTLVTVSS
VL: DIQMTQSPSSLSASVGDRVTITCRASQDISNYINWYQQKPGKAPKLLIYYTSRLYSGVPSRFSGSGSGTDFTLTISSLQPEDFATYYCQQFSELPRTFGQGTKVEIK
Turning to B2, the binding result in the experiment with recombinant mouse αvβ8 [1] and with recombinant mouse αvβ8 [3] was “binds” throughout.

B3: ADWA16-3.2 (antibody, V domains shown)
VH: EVQLVESGGGLVQPGGSLRLSCAVSGYIFSSYWVYWVRQAPGKGLEWVGYISPTTGYTVYADSVKGRFTISRDNSKNTLYLQMNSLRAEDTAVYYCATEGGNWEDYWGQGTLVTVSS
VL: DIQMTQSPSSLSASVGDRVTITCRASQDISNYINWYQQKPGKAPKLLIYYTSRLYGGVPSRFSGSGSGTDFTLTISSLQPEDFATYYCQQFSELPRTFGQGTKVEIK
notes: also called humanized derivative of ADWA16
As to B3, the binding result (with recombinant mouse αvβ8 [1]; in experiment [4]; in experiment [5]; with recombinant mouse αvβ8 [2]; in experiment [6]; in the experiment with recombinant mouse αvβ8 [3]) was “binds” in each case.

B4: ADWA16-4 (antibody, V domains shown)
VH: EVQLVESGGGLVQPGGSLRLSCAVSGYIFSSYWVYWVRQAPGKGLEWVGYINPTTGYTEYADSVKGRFTISRDNSKNTLYLQMNSLRAEDTAVYYCATEGGNWEDYWGQGTLVTVSS
VL: DIQMTQSPSSLSASVGDRVTITCRASKDISNYINWYQQKPGKAPKLLIYYTSRLYGGVPSRFSGSGSGTDFTLTISSLQPEDFATYYCQQFSELPRTFGQGTKVEIK
As to B4, the binding result with recombinant mouse αvβ8 [1] and with recombinant mouse αvβ8 [3] was “binds” in each case.

B5: ADWA16-2 (antibody, V domains shown)
VH: EVQLVESGGGLVQPGGSLRLSCAVSGYIFSSYWVYWVRQAPGKGLEWVGYINPTTGYTEYADSVKGRFTISRDNSKNTLYLQMNSLRAEDTAVYYCATEGGNWEDYWGQGTLVTVSS
VL: DIQMTQSPSSLSASVGDRVTITCRASKDISNYLNWYQQKPGKAPKLLIYYTSRLYSGVPSRFSGSGSGTDFTLTISSLQPEDFATYYCQQFSELPRTFGQGTKVEIK
As to B5, the binding result with recombinant mouse αvβ8 [1] and with recombinant mouse αvβ8 [3] was “binds” in each case.

B6: ADWA11 (antibody, V domains shown)
VH: EVQLQQSGAELVRPGAFVKLSCKASGFNIKDYYMNWVLQRPEQGLEWIGWIDPDNGNTIYDPKFQGKASITADTSSNTAYLQLSSLTSEDTAVYYCARRLLMDYWGQGTSVTVSS
VL: DIVMTQAAPSVPVTPGESVSISCRSTKSLLHFNGNTYLFWFLQRPGQSPQRLIYYMSNLASGVPDRFSGRGSGTDFTLRISRVEAEDVGVYYCMQSLEYPFTFGTGTKLEIK
notes: IgG; also called ADWA1l
Take B6: the binding result in experiment [6] is “binds”.

B7: ADWA16-chimera (antibody, V domains shown)
VH: QVQLQQSGAELAKPGASMKMSCKASGYTFSSYWIYWVKQRPGQGLEWIGYINPTTGYTEYNQKFRDKATLTADKSSNTAYMQLSSLTSEDSAVYYCATEGGNWEDYWGQGTTLTVSS
VL: DIQMTQTTSSLSASLGDRVTISCRASQDISNYLNWYQQKPDGTVKLLIYYTSRLYSGVPSRFSGSGSGTDYSLTISNLEPKDIATYYCQQFSELPRTFGGGTKLEIK
notes: It was captured on anti-human Fab-CH1 tips and detected with anti-human secondary, so it has human constant regions; also called chimeric ADWA-16; chimeric version of the parent ADWA16 murine IgG
Turning to B7, the binding entry with recombinant mouse αvβ8 [3] is listed as “binds”.
